IC50 and EC50 data for three compounds are collected here from US20110230476A1.

Sequences of proteins named here, by UniProt entry; tags and fusion partners are left off.
UniProt P42338, whole entry: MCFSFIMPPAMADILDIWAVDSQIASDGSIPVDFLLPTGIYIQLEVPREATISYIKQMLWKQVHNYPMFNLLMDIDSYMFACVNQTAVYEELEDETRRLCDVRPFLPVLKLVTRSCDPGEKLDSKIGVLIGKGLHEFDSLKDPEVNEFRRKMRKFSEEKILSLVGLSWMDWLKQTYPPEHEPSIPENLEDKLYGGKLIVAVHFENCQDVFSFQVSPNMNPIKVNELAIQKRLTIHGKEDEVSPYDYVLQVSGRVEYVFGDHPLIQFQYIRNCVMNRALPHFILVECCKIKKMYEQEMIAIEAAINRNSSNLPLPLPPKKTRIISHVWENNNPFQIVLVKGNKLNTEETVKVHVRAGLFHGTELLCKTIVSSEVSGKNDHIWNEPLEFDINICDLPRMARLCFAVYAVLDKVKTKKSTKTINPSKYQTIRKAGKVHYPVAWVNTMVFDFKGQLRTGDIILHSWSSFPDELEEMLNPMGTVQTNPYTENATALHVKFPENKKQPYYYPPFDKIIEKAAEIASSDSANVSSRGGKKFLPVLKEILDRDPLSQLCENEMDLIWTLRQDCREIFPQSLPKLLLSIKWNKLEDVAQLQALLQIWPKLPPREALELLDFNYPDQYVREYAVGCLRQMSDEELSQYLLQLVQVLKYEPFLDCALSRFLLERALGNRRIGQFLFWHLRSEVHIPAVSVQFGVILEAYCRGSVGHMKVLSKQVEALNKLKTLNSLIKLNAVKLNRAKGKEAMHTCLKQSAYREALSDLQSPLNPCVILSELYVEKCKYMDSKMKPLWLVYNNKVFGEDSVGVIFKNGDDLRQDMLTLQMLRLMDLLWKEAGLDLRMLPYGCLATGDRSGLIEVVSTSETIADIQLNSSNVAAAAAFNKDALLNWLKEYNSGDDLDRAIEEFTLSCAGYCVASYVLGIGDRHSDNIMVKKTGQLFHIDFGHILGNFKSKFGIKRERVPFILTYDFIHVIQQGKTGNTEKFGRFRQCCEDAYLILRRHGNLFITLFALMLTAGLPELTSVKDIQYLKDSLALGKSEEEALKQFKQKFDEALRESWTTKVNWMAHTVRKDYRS
UniProt P42336, whole entry: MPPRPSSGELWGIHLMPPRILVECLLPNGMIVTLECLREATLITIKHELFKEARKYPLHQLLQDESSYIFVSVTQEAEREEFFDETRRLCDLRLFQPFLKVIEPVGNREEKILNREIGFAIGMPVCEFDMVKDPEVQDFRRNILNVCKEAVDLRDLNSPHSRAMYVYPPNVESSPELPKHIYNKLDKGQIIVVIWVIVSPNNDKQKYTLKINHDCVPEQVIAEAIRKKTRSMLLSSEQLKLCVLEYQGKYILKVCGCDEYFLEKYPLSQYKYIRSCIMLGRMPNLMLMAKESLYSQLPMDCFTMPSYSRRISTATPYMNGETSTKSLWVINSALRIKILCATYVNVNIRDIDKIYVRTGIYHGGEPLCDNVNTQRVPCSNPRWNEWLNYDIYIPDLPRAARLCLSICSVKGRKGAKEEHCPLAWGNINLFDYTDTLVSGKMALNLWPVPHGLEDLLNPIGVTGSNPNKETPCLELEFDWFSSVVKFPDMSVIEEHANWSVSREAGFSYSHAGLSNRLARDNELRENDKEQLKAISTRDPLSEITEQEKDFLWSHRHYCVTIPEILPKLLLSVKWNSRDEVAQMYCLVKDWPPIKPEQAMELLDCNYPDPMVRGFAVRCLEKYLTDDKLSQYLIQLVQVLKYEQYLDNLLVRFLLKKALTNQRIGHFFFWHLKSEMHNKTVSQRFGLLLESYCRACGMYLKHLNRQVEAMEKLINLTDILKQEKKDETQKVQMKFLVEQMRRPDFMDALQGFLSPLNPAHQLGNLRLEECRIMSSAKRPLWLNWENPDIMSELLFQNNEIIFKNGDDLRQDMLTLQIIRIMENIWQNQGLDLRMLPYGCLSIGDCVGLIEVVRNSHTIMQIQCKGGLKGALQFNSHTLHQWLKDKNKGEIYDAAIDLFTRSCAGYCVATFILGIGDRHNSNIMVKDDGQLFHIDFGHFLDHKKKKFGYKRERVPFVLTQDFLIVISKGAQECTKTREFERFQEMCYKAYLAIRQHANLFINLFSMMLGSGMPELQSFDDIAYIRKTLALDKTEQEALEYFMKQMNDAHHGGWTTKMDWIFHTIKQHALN
UniProt P48736, whole entry: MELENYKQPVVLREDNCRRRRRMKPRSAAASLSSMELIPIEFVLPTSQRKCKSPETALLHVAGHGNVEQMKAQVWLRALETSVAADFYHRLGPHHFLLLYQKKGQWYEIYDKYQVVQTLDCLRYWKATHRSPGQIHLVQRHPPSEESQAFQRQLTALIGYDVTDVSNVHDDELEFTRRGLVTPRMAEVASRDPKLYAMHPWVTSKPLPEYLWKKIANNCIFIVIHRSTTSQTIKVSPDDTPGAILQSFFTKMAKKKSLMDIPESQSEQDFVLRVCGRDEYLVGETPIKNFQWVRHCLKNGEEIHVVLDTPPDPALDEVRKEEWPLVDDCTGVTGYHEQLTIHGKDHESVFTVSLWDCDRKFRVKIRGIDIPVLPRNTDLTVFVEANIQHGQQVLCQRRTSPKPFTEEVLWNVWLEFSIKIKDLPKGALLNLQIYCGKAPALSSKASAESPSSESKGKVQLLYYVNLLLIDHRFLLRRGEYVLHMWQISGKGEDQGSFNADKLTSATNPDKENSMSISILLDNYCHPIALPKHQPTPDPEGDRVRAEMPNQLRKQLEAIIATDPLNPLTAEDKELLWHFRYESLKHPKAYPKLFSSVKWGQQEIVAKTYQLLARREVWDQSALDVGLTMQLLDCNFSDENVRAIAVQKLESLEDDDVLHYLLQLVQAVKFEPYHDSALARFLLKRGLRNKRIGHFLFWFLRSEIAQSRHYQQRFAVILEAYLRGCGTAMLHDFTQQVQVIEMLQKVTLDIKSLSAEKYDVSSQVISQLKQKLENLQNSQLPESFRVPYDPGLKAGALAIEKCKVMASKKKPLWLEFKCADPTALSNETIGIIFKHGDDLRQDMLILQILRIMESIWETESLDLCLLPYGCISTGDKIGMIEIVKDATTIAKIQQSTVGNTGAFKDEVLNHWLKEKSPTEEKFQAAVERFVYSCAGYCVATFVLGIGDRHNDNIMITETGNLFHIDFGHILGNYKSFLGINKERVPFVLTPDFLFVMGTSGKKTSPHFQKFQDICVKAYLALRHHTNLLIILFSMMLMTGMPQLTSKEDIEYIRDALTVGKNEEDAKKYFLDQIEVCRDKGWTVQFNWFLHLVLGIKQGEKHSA
UniProt P27986, whole entry partner: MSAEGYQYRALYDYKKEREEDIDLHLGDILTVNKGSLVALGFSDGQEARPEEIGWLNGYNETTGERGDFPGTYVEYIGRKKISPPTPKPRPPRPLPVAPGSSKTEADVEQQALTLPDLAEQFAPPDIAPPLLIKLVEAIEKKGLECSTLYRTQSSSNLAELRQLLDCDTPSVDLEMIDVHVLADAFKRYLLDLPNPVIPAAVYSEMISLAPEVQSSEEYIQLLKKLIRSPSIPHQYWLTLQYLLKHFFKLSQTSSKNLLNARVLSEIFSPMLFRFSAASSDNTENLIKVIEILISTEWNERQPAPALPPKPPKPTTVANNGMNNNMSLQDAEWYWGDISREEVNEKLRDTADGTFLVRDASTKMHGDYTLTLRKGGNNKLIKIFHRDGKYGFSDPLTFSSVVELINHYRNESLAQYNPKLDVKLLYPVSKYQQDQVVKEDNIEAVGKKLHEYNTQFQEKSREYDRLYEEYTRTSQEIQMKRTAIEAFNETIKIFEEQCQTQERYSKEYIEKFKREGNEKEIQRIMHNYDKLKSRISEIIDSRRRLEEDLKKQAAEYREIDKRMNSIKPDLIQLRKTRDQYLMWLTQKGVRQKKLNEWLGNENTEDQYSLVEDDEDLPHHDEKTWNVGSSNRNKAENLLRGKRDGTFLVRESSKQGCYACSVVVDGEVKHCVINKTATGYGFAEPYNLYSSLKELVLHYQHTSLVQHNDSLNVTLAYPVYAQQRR

One test deals with PI3Kβ (p110β/p85α) (Homo sapiens, UniProt P42338). The experiment in a line: HTRF assay, potency against active PI3Kβ. Format: biochemical. The note with it: read-out: PI3Kβ Inhibition, [ATP]=50 μM, [di-C8-PIP2]=10 μM, 30 min pre-incubation. (In general: TR-FRET usually uses a lanthanide donor and a delayed reading to cut background.)
The target of a further test is PI3Kα (p110α/p85α) (Homo sapiens, UniProt P42336). Put plainly: HTRF assay, potency against active PI3Kα. The format is biochemical. The note with it: read-out: PI3Kα Inhibition, [ATP]=50 μM, [di-C8-PIP2]=10 μM, 30 min pre-incubation.
In another test the test system is Phospho-Akt(Ser473). The experiment in a line: Dose response in SKOV3 cells as determined by in-cell Western. Format: cell-based. The note with it: read-out: pAKT Inhibition in cell Western, 1 hr.
Another test relates to PI3K. The experiment in a line: PI3K HCT116 cellular assay (Western blot). The note with it: read-out: PI3K Inhibition, HCT116 colon cancer cells, 1 hour incubation.
The target in the next test is PI3Kγ (p120γ) (Homo sapiens, UniProt P48736). Put plainly: HTRF assay, potency against active PI3Kγ. The settings on record: read-out: PI3Kγ Inhibition, [ATP]=50 μM, [di-C8-PIP2]=10 μM, 30 min pre-incubation.

Structures are written as SMILES. The match of structure and compound is tentative.

In the case of `C=CC(=O)Nc1ccc(C(=O)N2CC=C(c3cc4nc(-c5cnc(N)nc5)nc(C5=CCOCC5)c4s3)CC2)cc1`, the figures for the IC50 at PI3Kβ (p110β/p85α) and on PI3Kα (p110α/p85α) were 100 to 1000 nM and 10 to 100 nM, respectively. Besides, the EC50 in the test on Phospho-Akt(Ser473) was 10 to 100 nM.
`C/C=C/C(=O)CCC(=O)N1CCC(n2nc(-c3cc4cc(O)ccc4[nH]3)c3c(N)ncnc32)CC1`: the IC50 on PI3Kα (p110α/p85α) is over 1000 nM.
In the case of `C/C=C/C(=O)CCC(=O)N1CCC(c2cc3nc(-c4cccc(O)c4)nc(N4CCOCC4)c3s2)C(OC(=O)C(F)(F)F)C1` (stereo not shown), in the test with PI3K, the EC50 was in the range of 100 to 500 nM. The values for the IC50 at PI3Kγ (p120γ) and on PI3Kα (p110α/p85α) were 100 to 1000 nM and 10 to 100 nM, respectively.
